# Measured data: PubChem BioAssay AID652243 (Drosophila RNAi Screening Center, 2013)
# Test: 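Knock-downs that decrease or increase androgen receptor reporter signal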 (primary screen)
# Cell system: Drosophila S2R+ cells
# Knock-down reagent: long dsRNA against Drosophila genes
# Duration: 72 h (48 h, then 24 h hormone)
# Challenge: synthetic androgen R1881 at 10 nM for 24 h
# Measured: 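Firefly light from an androgen-responsive reporter and Renilla control light per well, raw and unnormalised, for each of two replicates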
# Direction: firefly reporter light: higher = more light from androgen-responsive reporter; Renilla control light: higher = more constitutive control signal (cell number, transfection)
# Hit rule: 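Hit when the log firefly-to-Renilla ratio dropped or increased by a fixed fold versus the mean of GFP or LacZ controls across duplicate plates; lowering cut given as 1.5 and as 3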
# Calls: active = hit: reporter lowered or raised; inactive = no hit
# In all, the deposit lists about 24,000 reagents; shown is an unselected part of those that have a named target and a result. Over the whole deposit, 246 (1%) were called active. 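Plates not normalised; calls are printed but the firefly/Renilla ratio behind them is not deposited; fold cut for lowering reported inconsistently.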 Raw values are not corrected between plates. The record does not give: the amount of reagent.
gene,DRSC id,"firefly reporter light, replicate 1","firefly reporter light, replicate 2","Renilla control light, replicate 1","Renilla control light, replicate 2",call
Ac76E,DRSC09642,1.69e5,1.22e5,4.70e5,3.38e5,inactive
Ac76E,DRSC09662,63793,65668,5.92e5,4.11e5,inactive
CG13055,DRSC09936,1.36e5,1.47e5,1.80e6,1.43e6,inactive
CG13055,DRSC25640,7.80e5,1.22e6,9.34e5,8.52e5,inactive
CG15696,DRSC15118,2.11e5,2.30e5,2.61e6,3.49e6,inactive
CG15696,DRSC25170,7.52e5,6.98e5,6.12e5,6.86e5,inactive
Raf,DRSC18821,88869,1.96e5,2.40e6,2.91e6,inactive
Raf,DRSC23311,8.87e5,9.62e5,1.78e6,1.75e6,inactive
Raf,DRSC36609,8.36e5,7.79e5,1.87e6,1.79e6,inactive
fra,DRSC07621,2.44e5,2.74e5,1.44e6,1.13e6,inactive
wde,DRSC05955,1.03e6,5.94e5,2.68e6,1.18e6,inactive
Cpr30B,DRSC02728,3.33e5,3.51e5,2.27e6,1.92e6,inactive
Cpr30B,DRSC25204,6.99e5,8.47e5,1.06e6,1.22e6,inactive
ste24b,DRSC07315,75503,81924,1.54e6,1.54e6,inactive
ste24b,DRSC24340,7.02e5,6.63e5,7.61e5,1.19e6,inactive
Phb2,DRSC06512,4.37e5,5.64e5,3.71e6,4.65e6,inactive
IA-2,DRSC00304,5.93e5,8.19e5,2.37e6,2.74e6,inactive
IA-2,DRSC00652,3.90e5,4.87e5,1.94e6,1.38e6,active
IA-2,DRSC23335,5.81e5,5.54e5,1.47e6,1.48e6,inactive
IA-2,DRSC24588,4.00e5,4.64e5,4.51e5,4.79e5,inactive
IA-2,DRSC36830,,,,,inactive
IA-2,DRSC36831,,,,,inactive
CG4325,DRSC23171,9.72e5,8.73e5,1.44e6,8.86e5,inactive
CG4325,DRSC26573,2.28e5,2.06e5,6.44e5,6.52e5,inactive

Taken from above.
CG4325 [DRSC26573], call: inactive
Phb2 [DRSC06512], Renilla control light, replicate 1 = 3.71e6
Under “call”, CG15696 [DRSC25170] is entered as inactive
CG13055 [DRSC25640], Renilla control light, replicate 2 = 8.52e5
